# In PubChem BioAssay AID2284350 (EPA ToxCast):
# The shares of active, inactive and inconclusive entries below differ from those in the screen. A potency beside an inconclusive call is a rough fit, not a confirmed value. The source made the active and inactive calls. Rule for the calls: active = hit-call score of the fitted dose curve at least 0.9, where 1 is the maximum; inconclusive = response in the unintended direction; inactive = score below 0.9.
# Test system: zebrafish Peroxisome Proliferator-activated Receptor alpha (PPARa), gene 563298
# Test: ATG_zfPPARa_EcoTox2: Attagene TRANS-FACTORIAL EcoTox-2 HepG2 Assay for zebrafish Peroxisome Proliferator-activated Receptor alpha (PPARa)
# Protocol: ATG_EcoTox2 is a cell-based, multiplexed assay created by modifying the existing Attagene TRANS-FACTORIAL system to include a panel of nuclear receptors from some or all the following species: human (Homo sapiens), african clawed frog (Xenopus laevis), rainbow trout (Oncorhynchus mykiss), japanese medaka (Oryzias latipes), and zebrafish (Danio rerio). The ECOTOX2-FACTORIAL format uses HepG2, a human liver cell line, with measurements taken at 24 hours after chemical dosing in a 24-well plate. ATG_zfPPARa_EcoTox2 is one of 29 assay components calculated in the ATG_EcoTox2 assay. It is designed to make measurements of mRNA induction, a form of inducible reporter, as detected with fluorescence intensity signals by Reverse transcription polymerase chain reaction (RT-PCR) and Capillary electrophoresis technology.The assay endpoint ATG_zfPPARa_EcoTox2 was analyzed in the positive analysis fitting direction relative to DMSO as the negative control and baseline of activity. Using a type of inducible reporter, measures of mRNA for gain-of-signal activity can be used to understand the reporter gene at the transcription factor-level as they relate to the gene PPARa. Furthermore, this assay endpoint can be referred to as a primary readout, because this assay has produced multiple assay endpoints where this one serves a reporter gene function. […]
Structure (SMILES),AC50,outcome
C[C@]12C=CC(=O)C=C1CC[C@@H]1[C@@H]2C(=O)C[C@@]2(C)[C@H]1CC[C@]2(O)C(=O)CO,inconclusive: 50 µM,–
CC(C)(Oc1ccc(Cl)cc1)C(=O)O,–,inactive
